Assay results published in the supplement of paper PMC9233669.
Variants at the background level are over-represented here.

Assays:
biotinyl-Phe-oxazolone = assay: self-aminoacylation, catalytic enhancement (BFO) (fold over background); higher = more active; k-Seq, kA / k0A0; sequences stand for … in GGGAAUGGAUCCACAUCUACGAAUUC…UUCACUGCAGACUUGACGAAGCUG
In short: (§1)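 Mutagenized RNA pools with a 21-nt variable region (0.43 μM) reacted with each biotinyl-aminoacyl-oxazolone at 2–1250 μM. Reactions ran in 50 μL HEPES/NaCl/KCl/MgCl2/CaCl2 buffer with 5% acetonitrile, pH 6.9–7.0, for 90 minutes at room temperature. Streptavidin-captured RNA was quantified by triplicate qPCR and Illumina sequencing, and per-sequence fraction reacted was fit to a pseudo-first-order model with 1000 bootstraps. Catalytic enhancement is median kA divided by the uncatalyzed rate, the low-activity peak of a bimodal Gaussian fit.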

biotinyl-Trp-oxazolone = assay: self-aminoacylation, catalytic enhancement (BWO) (fold over background); higher = more active; k-Seq, kA / k0A0; sequences stand for … in GGGAAUGGAUCCACAUCUACGAAUUC…UUCACUGCAGACUUGACGAAGCUG
In short: as §1

biotinyl-Met-oxazolone = assay: self-aminoacylation, catalytic enhancement (BMO) (fold over background); higher = more active; k-Seq, kA / k0A0; sequences stand for … in GGGAAUGGAUCCACAUCUACGAAUUC…UUCACUGCAGACUUGACGAAGCUG
In short: as §1

biotinyl-Leu-oxazolone = assay: self-aminoacylation, catalytic enhancement (BLO) (fold over background); higher = more active; k-Seq, kA / k0A0; sequences stand for … in GGGAAUGGAUCCACAUCUACGAAUUC…UUCACUGCAGACUUGACGAAGCUG
In short: as §1

biotinyl-Val-oxazolone = assay: self-aminoacylation, catalytic enhancement (BVO) (fold over background); higher = more active; k-Seq, kA / k0A0; sequences stand for … in GGGAAUGGAUCCACAUCUACGAAUUC…UUCACUGCAGACUUGACGAAGCUG
In short: as §1

biotinyl-Ile-oxazolone = assay: self-aminoacylation, catalytic enhancement (BIO) (fold over background); higher = more active; k-Seq, kA / k0A0; sequences stand for … in GGGAAUGGAUCCACAUCUACGAAUUC…UUCACUGCAGACUUGACGAAGCUG
In short: as §1

| Sequence | self-aminoacylation (biotinyl-Phe-oxazolone) | self-aminoacylation (biotinyl-Trp-oxazolone) | self-aminoacylation (biotinyl-Met-oxazolone) | self-aminoacylation (biotinyl-Leu-oxazolone) | self-aminoacylation (biotinyl-Val-oxazolone) | self-aminoacylation (biotinyl-Ile-oxazolone) |
| --- | --- | --- | --- | --- | --- | --- |
| AUUACCCUGGUGAUGGAGUGA [Fam2.1 aminoacylation ribozyme variant] | 31.1 | 5.69 | 5.67 | 5.75 | 2.55 | 2.62 |
| AUUACCCUGGUUAUCGAGAGA [Fam2.1 aminoacylation ribozyme variant] | 0.969 | 0.57 | 0.49 | 0.609 | 1 | 0.837 |
| AUUACCCUGGUUAUCGAGUGC [Fam2.1 aminoacylation ribozyme variant] | 1.1 | 1.12 | 0.882 | 1.02 | 1.08 | 0.828 |
| AUUACCCUGGUUGUCGAGUGA [Fam2.1 aminoacylation ribozyme variant] | 1.97 | 3.23 | 1.91 | 1.85 | 1.33 | 1.38 |
| AUUACCCUGUUCAGCGAGUGA [Fam2.1 aminoacylation ribozyme variant] | 14.4 | 6.39 | 5.05 | 4.4 | 2.96 | 2.51 |
| AUUACCCUGUUCAUCGAGUUA [Fam2.1 aminoacylation ribozyme variant] | 0.909 | 0.616 | 1.13 | 1.12 | 1.12 | 1.19 |
| AUUACCGUGGUCAUAGAGUGA [Fam2.1 aminoacylation ribozyme variant] | 35.7 | 7.99 | 7.8 | 6.95 | 3.97 | 3.67 |
| AUUACCGUGGUCAUCGAAUGA [Fam2.1 aminoacylation ribozyme variant] | 0.501 | 0.841 | 0.94 | 1.11 | 1.05 | 1.06 |
| AUUACCUUGGUCAUCGAGUGG [Fam2.1 aminoacylation ribozyme variant] | 1.64 | 0.873 | 2.08 | 2.13 | 1.45 | 1.67 |
| AUUACGCUUGUCAUCGAGUGA [Fam2.1 aminoacylation ribozyme variant] | 4.09 | 4.03 | 3.16 | 3.93 | 2.36 | 2.6 |
| AUUAGCCUGGUCAUCAAGUGA [Fam2.1 aminoacylation ribozyme variant] | 17.9 | 4.94 | 4.31 | 4.41 | 2.45 | 2.74 |
| AUUAGGCUGGUCAUCGAGUGA [Fam2.1 aminoacylation ribozyme variant] | 8.97 | 4.23 | 3.01 | 2.85 | 2.48 | 2.53 |
| AUUCACCAAGGUCAGCGGGUG [Fam2.2 aminoacylation ribozyme variant] | 29.3 | 4.65 | 4.83 | 5.4 | 3.95 | 4.01 |
| AUUCACCUAAGUCAUCGUGUG [Fam2.2 aminoacylation ribozyme variant] | 0.491 | 0.751 | 0.927 | 1.19 | 1.09 | 0.828 |
| AUUCACCUACGUCAUCGGAUG [Fam2.2 aminoacylation ribozyme variant] | 0.403 | 0.335 | 0.627 | 0.648 | 0.783 | 0.643 |
| AUUCACCUAGAUCAUCAGGUG [Fam2.2 aminoacylation ribozyme variant] | 0.666 | 0.71 | 1.06 | 1.14 | 1.05 | 0.933 |
| AUUCACCUAGAUCAUUGGGUG [Fam2.2 aminoacylation ribozyme variant] | 18 | 3.54 | 3.71 | 3.94 | 1.91 | 2.15 |
| AUUCACCUAGCUCAUCAGGUG [Fam2.2 aminoacylation ribozyme variant] | 0.307 | 0.459 | 0.828 | 0.703 | 0.868 | 0.771 |
| AUUCACCUAGCUCAUCGGGAG [Fam2.2 aminoacylation ribozyme variant] | 0.656 | 0.858 | 0.989 | 1.32 | 1.08 | 1.16 |
| AUUCACCUAGCUCAUCGGGUC [Fam2.2 aminoacylation ribozyme variant] | 0.876 | 0.718 | 0.947 | 0.882 | 1.12 | 1.01 |
| AUUCACCUAGGUCAGCGGAUG [Fam2.2 aminoacylation ribozyme variant] | 0.997 | 1.75 | 1.08 | 1.59 | 1.41 | 1.45 |
| AUUCACCUAGGUCAUCAGAUG [Fam2.2 aminoacylation ribozyme variant] | 0.715 | 0.522 | 0.656 | 0.928 | 0.872 | 0.857 |
| AUUCACCUAGGUCAUCCGGUU [Fam2.2 aminoacylation ribozyme variant] | 9.74 | 1.39 | 1.82 | 1.97 | 1.88 | 1.63 |
| AUUCACCUAGGUCAUGGGGUG [Fam2.2 aminoacylation ribozyme variant] | 39.9 | 5.27 | 5.76 | 7.33 | 3.56 | 3.7 |
| AUUCACCUAGGUCAUUGGGUA [Fam2.2 aminoacylation ribozyme variant] | 1.45 | 1.38 | 1.72 | 1.83 | 1.47 | 1.56 |
| AUUCACCUAGGUCCUCAGGUG [Fam2.2 aminoacylation ribozyme variant] | 1.51 | 1.43 | 1.65 | 1.79 | 1.23 | 1.07 |

| Sequence | self-aminoacylation (biotinyl-Phe-oxazolone) | self-aminoacylation (biotinyl-Trp-oxazolone) | self-aminoacylation (biotinyl-Met-oxazolone) | self-aminoacylation (biotinyl-Leu-oxazolone) | self-aminoacylation (biotinyl-Val-oxazolone) | self-aminoacylation (biotinyl-Ile-oxazolone) |
| --- | --- | --- | --- | --- | --- | --- |
| AUUCACCUAGGUCGUAGGGUG [Fam2.2 aminoacylation ribozyme variant] | 1.02 | 0.737 | 1.46 | 1.74 | 1.17 | 1.04 |
| AUUCACCUAGGUCUUAGGGUG [Fam2.2 aminoacylation ribozyme variant] | 32.2 | 4.24 | 5.1 | 7.06 | 2.85 | 3.08 |
| AUUCACCUAGGUGAUCGGAUG [Fam2.2 aminoacylation ribozyme variant] | 1.82 | 1.16 | 0.967 | 0.943 | 0.924 | 0.945 |
| AUUCACCUAGGUUAUCCGGUG [Fam2.2 aminoacylation ribozyme variant] | 42.3 | 5.66 | 7.05 | 8.66 | 3.77 | 3.8 |
| AUUCACCUAUGUCAUCGUGUG [Fam2.2 aminoacylation ribozyme variant] | 0.532 | 0.418 | 0.86 | 0.795 | 0.877 | 0.831 |
| AUUCACCUGGGUCAUCGGAUG [Fam2.2 aminoacylation ribozyme variant] | 0.802 | 0.666 | 0.96 | 0.968 | 1.19 | 0.984 |
| AUUCACUUAGGUCAUCGGGUA [Fam2.2 aminoacylation ribozyme variant] | 1.49 | 1.96 | 2.38 | 1.89 | 2.15 | 2.29 |
| AUUCACUUAGGUCAUCGGUUG [Fam2.2 aminoacylation ribozyme variant] | 0.69 | 0.519 | 0.764 | 0.901 | 0.831 | 0.87 |
| AUUCAUCUAGGUCAGCGGGUG [Fam2.2 aminoacylation ribozyme variant] | 25.3 | 4.36 | 4.17 | 5.56 | 3.23 | 3.25 |
| AUUCCCCGAGGUCAUCGGGUG [Fam2.2 aminoacylation ribozyme variant] | 188 | 20.2 | 22.7 | 29.9 | 14 | 12.5 |
| AUUCCCCUAGGUAAUCGGGUG [Fam2.2 aminoacylation ribozyme variant] | 90.8 | 11.6 | 10.7 | 16.3 | 6.58 | 7.5 |
| AUUCCCCUAGGUCAUCAGGUG [Fam2.2 aminoacylation ribozyme variant] | 29.4 | 7.46 | 8.46 | 8.19 | 6.96 | 6.44 |
| AUUCCCCUAGGUCAUUGGGUG [Fam2.2 aminoacylation ribozyme variant] | 92.5 | 11.8 | 10.3 | 15.6 | 7.95 | 7.23 |
| AUUCGCCUAGGUCAUCGCGUG [Fam2.2 aminoacylation ribozyme variant] | 126 | 17.6 | 19.2 | 23.4 | 10.9 | 10 |
| AUUCGCGUAGGUCAUCGGGUG [Fam2.2 aminoacylation ribozyme variant] | 57.5 | 7.24 | 8.32 | 8.56 | 4.87 | 5.25 |
| AUUCUGCUAGGUCAUCGGGUG [Fam2.2 aminoacylation ribozyme variant] | 72.1 | 9.84 | 9.46 | 12 | 6.13 | 5.96 |
| AUUGCCCUGGUCAUCGAGUGG [Fam2.1 aminoacylation ribozyme variant] | 197 | 29.8 | 30.9 | 29.4 | 10.9 | 9.44 |
| AUUGCCCUGGUCAUCGAUUGA [Fam2.1 aminoacylation ribozyme variant] | 1.22 | 0.917 | 0.981 | 0.982 | 1.23 | 0.93 |
| AUUUACCUAGGUCAGCGGGUG [Fam2.2 aminoacylation ribozyme variant] | 24.5 | 3.98 | 4.01 | 4.23 | 3.16 | 2.49 |
| AUUUACCUAGGUCAUCAGGUG [Fam2.2 aminoacylation ribozyme variant] | 0.951 | 1.23 | 1.58 | 1.47 | 1.31 | 1.29 |
| AUUUCCCUCGUCAUCGAGUGA [Fam2.1 aminoacylation ribozyme variant] | 21.2 | 4.57 | 3.39 | 3.93 | 2.6 | 2.5 |
| CAACACUUCAAGCGAUCGGUC [Fam1B.1 aminoacylation ribozyme variant] | 1.94 | 1.81 | 1.29 | 1.55 | 1.25 | 1.27 |
| CAACACUUCGAGCAAUCGGUC [Fam1B.1 aminoacylation ribozyme variant] | 1.05 | 0.722 | 0.965 | 1.28 | 1.07 | 1.09 |
| CAACUACAAACAAUCGGUCUG [Fam1A.1 aminoacylation ribozyme variant] | 1.89 | 1.14 | 1.2 | 1.03 | 0.826 | 0.893 |
| CAACUUCAAACAAUUGGUCUG [Fam1A.1 aminoacylation ribozyme variant] | 1.52 | 1.35 | 0.957 | 0.939 | 1.03 | 1.23 |
